In US20150366877A1, “METHODS OF TREATMENT OF HUMAN CYTOMEGALOVIRUS INFECTION AND DISEASES WITH BROMODOMAIN INHIBITORS” (Washington University, priority 2013, published 2015):
Some results were stated once for a whole list of compounds, not compound by compound.

Tested on: HCMV laboratory strain AD169-GFP
Assay: Time of addition assay on HCMV replication (GFP units)
Type: cell-based, Human cytomegalovirus

Compound: Nc1ccn(C[C@@H](CO)OCP(=O)(O)O)c(=O)n1 [Cidofovir]
- dosage required to control viral infection: at least 10 ×IC50

Compound: Nc1nc(O)c2ncn(COC(CO)CO)c2n1 [Ganciclovir]
- dosage required to control viral infection: at least 10 ×IC50
